Results: PubChem BioAssay AID493014 (National Center for Advancing Translational Sciences (NCATS), 2011)
In all, about 340,000 compounds went through this assay and about 170 (0.05%) were called active. This list was built around the results that the source calls inconclusive (neither active nor inactive); the mix of calls is not that of the screen. The call rests on the fitted dose curve; in most records, active means well fitted inhibition curve with a large enough effect in the signal ratio, with a control signal flat (not every such curve was filed as active); inconclusive means small, poorly fitted or top-dose-only effect, or effect the other way, or a change in a side signal; inactive means flat fitted curve, though single readings scatter; the % refers to the signal ratio. Potencies beside an inconclusive call are fits to weak or partial responses and may not hold up.

experiment: qHTS Assay to Find Inhibitors of Chronic Active B-Cell Receptor Signaling; settings: ABC-DLBCL IkBa-CBG/CBR reporter, luminescence ratio (green luciferase fused to IkBa over red control in TMD8 lymphoma cells), 4 h; activity change, negative = inhibition: at 46.1 µM (top of the series);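 on activity change, negative = inhibition: plate controls were basal doxycycline-induced cells for no effect and cells given 10 µM MG132 for full effect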
Summary of the method: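 Concentration-response series (up to 46 uM) were applied to TMD8 dual-reporter cells for 4 h at 37C with doxycycline. Green/red ratio, after filter-overlap correction, defined %Activity; red signal alone was normalised to basal cells and zero luminescence.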
Potency means the concentration at half of the fitted maximal effect.

SMILES	activity change, negative = inhibition	Potency
CC(NC(=O)C12CC3CC(CC(C3)C1)C2)c1ccc(F)cc1 (centres undefined)	inactive: 1.88%	
CCn1cnc2cc(NCc3ccncc3)ccc21	inconclusive: -1.81%	
CCOc1ccc(NC(=O)NCCCN2CCCC2)cc1	inconclusive: -3.93%	
O=C(NCCN1CCOCC1)c1ccccc1N1C(=O)[C@@H]2Cc3c([nH]c4ccccc34)C(c3ccccc3)N2C1=O (some centres undefined)	inconclusive: -5.01%	
O=C(Nc1ccc2sccc2c1)c1cccc(N2C(=O)CCC2=O)c1	inconclusive: -6.58%	
CCOc1ccc(S(=O)(=O)NCc2ccccn2)cc1NC(=O)c1ccccc1F		inconclusive: 2.82 µM [falling, full curve, poor fit]
Cn1c(NNC(=O)c2ccccc2F)cc(=O)n(C)c1=O	inconclusive: -5.78%	
CCN(CC)c1ccc(NC2=C(Cl)C(=O)c3ccccc3C2=O)cc1	inconclusive: 3.49%	
COC(=O)COc1cc(OCC(=O)OC)c2c(-c3ccccc3)cc(=O)oc2c1	inactive: -6.63%	
C/C(=N\NC(=S)Nc1cccc(C)c1)c1ccco1		inconclusive: 10 µM [rising, partial curve]
CCOc1ccc2nc(SCC(=O)NC(=O)C(C)C)sc2c1	inconclusive: -26.5%	
CCOC(=O)c1ccc(NC(=S)N(CCCN2CCCCC2)Cc2ccco2)cc1	inactive: -4.31%	
CCOC(=O)C1CCN(C(=O)/C=C/c2ccc(OC)cc2)CC1	inconclusive: 424%	
COc1ccc(NC(=S)N(CCCN2CCCC2)Cc2cccs2)cc1	inconclusive: 4.43%	
COc1cc(C2NC(=O)NC(C)=C2C(=O)OCc2ccccc2)ccc1O (centres undefined)	inactive: -20.7%	
CC12CCC(=O)N1C(C(=O)Nc1nnc(SCc3ccccc3F)s1)CS2 (centres undefined)		inconclusive: 20 µM [falling, partial curve, poor fit]
Cc1ccc(NC(=O)CCCc2ccccc2)nc1	inconclusive: -1.45%	
O=C(O)CSc1c(-c2ccccc2)c2cc(Cl)ccc2[nH]c1=O		inconclusive: 29.1 µM [rising, single point]
Cc1ccc(N2C(N)=C(C#N)C(c3cccnc3)C3=C2CCCC3=O)cc1 (centres undefined)	inconclusive: 11.3%	
Cc1nc2cc(NC(=O)N3CCCCC3)ccc2n1C		inconclusive: 29.1 µM [falling, single point]
O=C(Nc1ccc(NC(=O)c2ccco2)nc1)c1ccco1		inconclusive: 22.4 µM [falling, partial curve]
COc1cc(C)c(C)cc1S(=O)(=O)N1CCN(Cc2ccc3c(c2)OCO3)CC1	inactive: 2.22%	
CCCCn1c(=N)n(CC(O)c2ccccc2)c2ccccc21 (centres undefined)	inconclusive: -14.9%	
COc1ccc(CN2CCOCC2)cc1Br	inactive: -1.71%	
COc1ccc(NC(=O)Cn2nnc(-c3ccccc3NC(=O)c3cccs3)n2)cc1	inactive: -0.324%	
O=C1NC(=S)S/C1=C/c1ccc(N2CCOCC2)o1	inconclusive: -9.86%	
N#CCc1ccc(C(=O)c2ccccc2F)s1	inconclusive: -0.96%	

A different layout for part of the listing above.

| SMILES | activity change, negative = inhibition | Potency |
| --- | --- | --- |
| CCOc1ccc(S(=O)(=O)NCc2ccccn2)cc1NC(=O)c1ccccc1F |  | inconclusive: 2.82 µM [falling, full curve, poor fit] |
| Cn1c(NNC(=O)c2ccccc2F)cc(=O)n(C)c1=O | inconclusive: -5.78% |  |
| CCN(CC)c1ccc(NC2=C(Cl)C(=O)c3ccccc3C2=O)cc1 | inconclusive: 3.49% |  |
| COC(=O)COc1cc(OCC(=O)OC)c2c(-c3ccccc3)cc(=O)oc2c1 | inactive: -6.63% |  |
| C/C(=N\NC(=S)Nc1cccc(C)c1)c1ccco1 |  | inconclusive: 10 µM [rising, partial curve] |
| CCOc1ccc2nc(SCC(=O)NC(=O)C(C)C)sc2c1 | inconclusive: -26.5% |  |
| CCOC(=O)c1ccc(NC(=S)N(CCCN2CCCCC2)Cc2ccco2)cc1 | inactive: -4.31% |  |
| CCOC(=O)C1CCN(C(=O)/C=C/c2ccc(OC)cc2)CC1 | inconclusive: 424% |  |
| COc1ccc(NC(=S)N(CCCN2CCCC2)Cc2cccs2)cc1 | inconclusive: 4.43% |  |

The results go on.

SMILES	activity change, negative = inhibition	Potency
CC(C)C(=O)Nc1ccc(-c2nc3ccccc3c(=O)o2)cc1	inactive: -23.6%	
Clc1ccc(-c2csc3ncnc(Cl)c23)cc1	inactive: -10.5%	
O=C(CCCN1C(=O)c2cccc3cccc(c23)C1=O)NCc1ccco1		inconclusive: 3.55 µM [rising, partial curve, poor fit]
CCOC(=O)C1(Cc2cccc(F)c2)CCN(Cc2ccc(COC)o2)CC1	inactive: -6.72%	
CCCCCCn1c(N2CCC(C)CC2)nc2c1c(=O)[nH]c(=O)n2C	inconclusive: -0.0529%	
CCCCn1c(C(C)O)nc2ccccc21 (centres undefined)	inconclusive: 1.31%	
COc1cc(/C=N/NC(=S)NC2CC3CC2C2C=CCC32)ccc1O (centres undefined)		inconclusive: 15.8 µM [falling, partial curve]
CCCCN(C)C(=O)C1CCN(Cc2ccc(OCc3ccccc3)cc2)CC1	inconclusive: -18.4%	
CSc1ccccc1C(=O)Nc1cc2c(cc1C(=O)O)OCCCO2		inconclusive: 17.8 µM [falling, single point]
CCn1c(=O)c(C2=NS(=O)(=O)c3ccccc3N2)c(O)c2ccccc21		inconclusive: 2 µM [falling, full curve, poor fit]
COc1ccccc1-c1nc(COc2ccc(Cl)cc2Cl)no1		inconclusive: 20 µM [falling, partial curve]
Cc1cc(SCC(=O)OCC(=O)N(C)c2ccccc2)nc2ccccc12	inconclusive: -2.73%	
O=C(NCCc1c[nH]c2ccccc12)c1ccccc1		inconclusive: 20 µM [falling, partial curve]
COC(=O)c1nnn(CC(=O)NC(=O)Nc2ccccc2)c1C(=O)OC	inactive: -0.464%	
CNC(=S)Nc1ccc(N2CCN(c3ccc(C(F)(F)F)cn3)CC2)nc1	inactive: 0.0607%	
O=C(NCCc1ccc(Cl)cc1)C(=O)NCC(c1ccco1)S(=O)(=O)c1cccs1 (centres undefined)	inactive: -10.1%	
Cc1ccsc1C(=O)NC(C)c1ccc2c(c1)OCO2 (centres undefined)		inconclusive: 18.4 µM [falling, partial curve]
COc1ccc(S(=O)(=O)Nc2c(O)c3ccccc3oc2=O)cc1		inconclusive: 25.1 µM [falling, single point]
COc1ccc(-c2nc(-c3ccncc3)no2)cc1OC	inconclusive: -0.363%	
CC(C)N1C(=O)C2C(C(=O)NC3CCCCC3)C3C=CC2(O3)C1C(=O)NC1CCCC1 (centres undefined)	inconclusive: 4.51%	
OCc1cn(-c2ccccc2)nc1-c1ccc(-c2nn(-c3ccccc3)cc2CO)cc1	inactive: 0.416%	
c1csc(-c2nn3c(C4COc5ccccc5O4)nnc3s2)c1 (centres undefined)	inconclusive: -17.7%	
O=S(=O)(Nc1ccc2ccccc2n1)c1ccccc1	inactive: -2.34%	
Cc1cccc(C(=O)Oc2ccc(/C=N/NC(=O)c3ccccc3O)cc2)c1		inconclusive: 25.9 µM [falling, partial curve]
O=C(NCCN1CCN(c2ccccc2F)CC1)C1CC(=O)N(C2CCCC2)C1 (centres undefined)	inconclusive: 5.02%	
COc1cc(/C=N/O)ccc1OCc1ccccc1Cl		inconclusive: 15.8 µM [falling, single point]
Cc1cccc(C(=O)NCCNC(=O)c2cccc(C)c2)c1	inactive: -0.459%	
